According to PubChem BioAssay AID1487 (National Center for Advancing Translational Sciences (NCATS), 2009):
Out of some 200,000 compounds screened, about 25 (0.01%) were called active. Inconclusive results, whose numbers are uncertain, are shown with a selection of clear calls. The call rests on the fitted dose curve; in most records, active means well fitted inhibition curve with a large enough effect in the signal ratio, with a control signal flat (not every such curve was filed as active); inconclusive means small, poorly fitted or top-dose-only effect, or effect the other way, or a change in a side signal; inactive means flat fitted curve, though single readings scatter; the % refers to the signal ratio. Where the call is inconclusive, the potency comes from a doubtful curve fit.

experiment: qHTS Assay for Modulators of Lamin A Splicing; conditions: HeLa LMNA splicing GFP/RFP minigene ratio, 48 h; ratio change, negative = inhibition: at 46.1 µM (top of the series) unless noted
How it was run: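 Read-out is the ratio of GFP to DsRed2 object intensity, acquired by 488 nm laser-scanning cytometry on HeLa lamin A-EGFP minigene reporter cells. Compound incubation 48 hrs at 37 °C in Opti-MEM with 2% FBS; DMSO 0.5% final.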
On the % scale 0 is the no-effect control and ±100 the full control effect; potency means the concentration at half of the fitted maximal effect.

Compound | ratio change, negative = inhibition | Potency
CC(=O)Nc1sc2c(c1C(c1ccc(Cl)cc1)N1CCOCC1)CCCC2 (configuration not stated) | inconclusive: -12.3% | –
Cc1cc(C)n2c(-c3ccccc3Cl)nnc2n1 | inactive | –
COC(=O)c1c(NS(C)(=O)=O)sc2c1CCCC2 | inactive | –
CNC1(C)C2CCC(C2)C1(C)C (configuration not stated) | inconclusive: -12.9% | inconclusive: 11.2 µM [activator, single point]
CCC(C)Nc1ncnc2c1cnn2Cc1ccc(Cl)cc1 (configuration not stated) | – | inconclusive: 35.5 µM [falling, single point]
CCOc1ccc(C(=O)NC2CC3CCCC(C2)N3CC(C)C)cc1 (configuration not stated) | inconclusive: -18% [at 46 µM] | –
Cc1nc2cncnc2n(Cc2ccccc2Cl)c1=O | inconclusive: -10.7% | –
Cc1ccc(Sc2sc(=O)n(C)c2S(=O)(=O)c2ccc(C)cc2)cc1 | – | inconclusive: 11.2 µM [activator, partial curve]
Cc1ccc(-c2nnc(SCc3nc4ccccc4[nH]3)n2Cc2ccco2)cc1 | inconclusive: 7.26% | –
O=c1[nH]c(=O)n([C@@H]2C[C@H](O)[C@H](CO)O2)cc1C(F)(F)F | – | inconclusive: 0.178 µM [inhibitor, full curve, poor fit]
Cc1cc(NC(=O)CCC(=O)N(c2ccccc2)C(C(=O)NC2CCCC2)c2ccccc2)no1 (configuration not stated) | inconclusive: -21.7% | –
O=C(OCc1cc(=O)n2nc(C3CC3)sc2n1)c1ccc(F)cc1 | inconclusive: -0.349% [at 46 µM] | –
N#Cc1ccccc1-c1ccc2ncnc(NC3CC3)c2c1 | – | inconclusive: 25.1 µM [inhibitor, single point]
COC(=O)c1ccc(NC(=O)c2cc(S(=O)(=O)N3CCc4ccccc43)cn2C)cc1 | – | inconclusive: 14.1 µM [fluorescent, single point]
N#Cc1ccccc1Cn1cc(C#N)c2ccccc21 | inconclusive: -7.3% | –
CCCCc1nnc(SCc2cc(=O)c3cc(C(=O)OCC)ccc3[nH]2)n1C | inconclusive: 5.46% [at 46 µM] | –
C/C(=C\c1ccco1)C1C(C#N)=C(N)Oc2n[nH]c(-c3ccccc3)c21 (configuration not stated) | inactive | –
O=C(CCNS(=O)(=O)c1cccc2nonc12)NCc1cccs1 | inactive | –
Cc1nc([N+](=O)[O-])c(C(=O)OCc2ccc(C#N)cc2)n1C | inactive: -2.15% [at 9.22 µM] | –
O=C(/C=C/c1ccccc1)NC(NC(=S)Nc1ccc(Cl)cc1)C(Cl)(Cl)Cl (configuration not stated) | – | inconclusive: 35.5 µM [cytotoxic, single point]
Cn1nc(-c2ccc(Cl)cc2)c2cc(C(=O)NC3CC3)sc21 | inactive | –

Compound | ratio change, negative = inhibition | Potency
Cc1ccc(C2=C(c3ccc([N+](=O)[O-])cc3)C(=O)OC2)cc1C | – | inconclusive: 35.5 µM [falling, single point]
O=[N+]([O-])c1ccc(F)cc1OCc1nc(-c2cccs2)no1 | inconclusive: -13.4% [at 46 µM] | –
CN(C)c1nc(N)nc(/C(C#N)=C/C2CC3C=CC2C3)n1 (configuration not stated) | inconclusive: 1.94% | –
COc1cc(C=O)ccc1OCC(=O)N1CCCC1 | inactive | –
CC(=O)c1cccc(NC(=O)NC2CCCc3ccccc32)c1 (configuration not stated) | inconclusive: 12.5% [at 46 µM] | –
Cc1c(-c2nc(N)nc(Nc3ccccc3)n2)oc2ccccc12 | inconclusive: 61% | –
Cc1ccc(-c2csc(NC(=O)c3ccc(C)o3)n2)cc1 | – | inconclusive: 35.5 µM [fluorescent, single point]
CCOC(=O)c1cc(-c2ccc(C)cc2)n(CCC(=O)N2CCN(c3ccccn3)CC2)c1C | – | inconclusive: 35.5 µM [fluorescent, single point]
CCCc1nc2oc3c(N4CCNCC4)ncnc3c2c2c1CCCC2 | – | inconclusive: 35.5 µM [cytotoxic, single point]
CC(=O)N(C)c1ccc(NS(=O)(=O)c2cc(Cl)ccc2Cl)cc1 | inconclusive: 22.8% [at 46 µM] | –
COc1ccccc1N1CCN(C(c2ccc(N(C)C)cc2)c2nnnn2CCc2ccccc2)CC1 (configuration not stated) | inactive | –
CCOc1ccccc1CNC(=O)c1cc2cc(S(=O)(=O)N3CCCCC3)ccc2n1C | inconclusive: -3.52% [at 46 µM] | –
CC(=O)Nc1ccc(NC(=O)CCNS(=O)(=O)c2cccc3nsnc23)cc1 | inconclusive: -14.6% [at 46 µM] | –
Cc1nc2c(-c3ccccc3)c(C)nn2c(C)c1CCC(=O)N1CCOCC1 | inconclusive: 30.4% | –
COCCCn1c(=S)[nH]c2ncccc2c1=O | inconclusive: 12.8% | –
N#C/C(=C(/O)CN1CCOCC1)c1nc(-c2ccccc2)cs1 | inactive | –
O=C(Nc1cc(C(F)(F)F)ccc1Cl)C(NCc1ccccc1)c1ccccc1 (configuration not stated) | inconclusive: -14.9% | –
CCOc1cccc(CC(=O)N2CCc3c([nH]c4ccccc34)C2c2ccc(F)cc2)c1OCC (configuration not stated) | inconclusive: 0.544% [at 46 µM] | –
CC(C)c1ccc(NC(=O)c2csnn2)cc1 | inactive | –
O=C(c1ccccc1Cl)N1CCC(c2nc3c(nnn3Cc3ccco3)c(=O)[nH]2)CC1 | inactive | –
CN1CCN(CCOc2ccc(Cl)c(Cl)c2)CC1 | inconclusive: 4.51% | –

Compound | ratio change, negative = inhibition | Potency
O=c1[nH]nc(SCc2nc3ccccc3s2)n1C1CC1 | inconclusive: -43.5% [at 46 µM] | –
CC1CCCN(Cc2c(O)ccc3c(=O)c(-c4nc5ccccc5s4)c(N)oc23)C1 (configuration not stated) | inconclusive: 4.28% | –
CC(C)C(C)NC(=O)COC(=O)c1cccc(C(=O)OCC(=O)NC(C)C(C)C)n1 (configuration not stated) | inconclusive: 3.05% [at 46 µM] | –
Cc1nn(-c2ccccc2)c(Cl)c1/C=C(\C#N)C(=O)NC(C)C | inconclusive: -31.9% | –
COc1ccccc1-n1cc(CN2CCCC(CO)(Cc3cccc(Cl)c3)C2)cn1 (configuration not stated) | inconclusive: -3.31% [at 46 µM] | –
CCOc1cc(Cl)c(NC(=O)CC)cc1OCC | inactive | –
CC(C)OCCCNC(=O)c1ccc(-n2c(-c3ccccc3)cc3c2CCCC3)cc1 | inconclusive: -30.8% [at 46 µM] | –
CCc1cccc(CC)c1-n1c(SCC(=O)N2CCc3ccccc3C2)nnc1-c1cccnc1 | inconclusive: -23.7% | –
Cc1cccc(CNc2ncnc3ccc(-c4ccccc4CN(C)C)cc23)c1 | inactive | –
CCOc1ccc(-c2nnc(SCC(=O)NCCC(C)C)nc2-c2ccc(OCC)c(OC)c2)cc1OC | inactive | –
O=C1Nc2c(Br)cc(Br)cc2C1(O)N1CCOCC1 (configuration not stated) | – | inconclusive: 25.1 µM [cytotoxic, partial curve]
CC12CCCCN1CCCc1c2[nH]c2ccccc12 (configuration not stated) | inconclusive: 12.3% | –
COCCn1c(C)cc(O)c(C(c2ccccc2)N2CCN(C)CC2)c1=O (configuration not stated) | inactive | –
Cc1cccc(NC(=O)CSc2nc3ccc(NC(=O)c4ccco4)cc3s2)c1 | inconclusive: -5.89% [at 46 µM] | –
COC(=O)\C(C(C)=O)=C(/C=C/C=C/C=C/N(C)C)N(C)C | inactive | –
CC(C)N(Cc1ccccc1)C(=O)CCS(=O)(=O)c1cc2c(cc1Cl)NC(=O)CO2 | inactive | –
O=C(/C=C(/c1ccc(Cl)cc1)n1cncn1)c1ccccc1 | inconclusive: -30.4% | –
CC1CCc2cc(F)ccc2N1S(=O)(=O)c1ccc(Cl)nc1 (configuration not stated) | inconclusive: -12.5% | –
Cc1ccc(NC(=O)COC(=O)/C=C/c2ccccc2)cc1S(=O)(=O)N1CCOCC1 | inconclusive: -22.2% [at 46 µM] | –
Cc1cc[n+](-c2[nH]c(=O)sc2/C=N/NC([S-])=Nc2ccccc2)cc1C | inactive | –
CC(C)(C)OC(=O)NCCc1nnc(S(=O)(=O)Cc2ccc(Cl)cc2Cl)o1 | inconclusive: -27% | –

Gathered by group, the entries above containing a thiophene ring, fused or not
Compound | ratio change, negative = inhibition | Potency
CC(=O)Nc1sc2c(c1C(c1ccc(Cl)cc1)N1CCOCC1)CCCC2 (configuration not stated) | inconclusive: -12.3% | –
COC(=O)c1c(NS(C)(=O)=O)sc2c1CCCC2 | inactive | –
O=C(CCNS(=O)(=O)c1cccc2nonc12)NCc1cccs1 | inactive | –
Cn1nc(-c2ccc(Cl)cc2)c2cc(C(=O)NC3CC3)sc21 | inactive | –
O=[N+]([O-])c1ccc(F)cc1OCc1nc(-c2cccs2)no1 | inconclusive: -13.4% [at 46 µM] | –

Next part.

Compound | ratio change, negative = inhibition | Potency
CC(C)n1nnnc1-c1cccc(Cl)c1 | inconclusive: 16.6% | –
O=C(CSc1nc2ccc([N+](=O)[O-])cc2[nH]1)NC1CCCCCC1 | – | inconclusive: 35.5 µM [falling, partial curve]
C=C(C)c1cccc(C(C)(C)NC(=O)NCCN(CC)CC)c1 | inconclusive: 6.32% [at 46 µM] | –
Cc1sc2ncn(CC(=O)Nc3c(F)cccc3F)c(=O)c2c1S(=O)(=O)N1CCC(C)CC1 | inactive | –
COc1cc(C)c2c(=O)cc(-c3ccccc3)oc2c1 | inconclusive: 15.6% | –
Clc1ccc(C(c2nnnn2C2CCCC2)N2CCSCC2)cc1 (configuration not stated) | inconclusive: 14% | –
O=C(Nc1nc2ccccc2n1Cc1ccc(Cl)cc1)c1ccco1 | inactive | –
COc1cc(/C=C2\SC(=N)N(c3ccc(F)cc3)C2=O)ccc1O | – | inconclusive: 8.91 µM [activator, partial curve]
COc1ccc2[nH]c(=O)c(CNc3cccc(C)c3)cc2c1 | inconclusive: 6.02% | –
O=C(COC(=O)c1ccc(Cl)cc1O)NC(=O)C1CCCCC1 | inconclusive: -10.1% [at 46 µM] | –
CCSc1ccccc1C(=O)NCc1ccco1 | inactive | –
CCn1c(=O)c(C(=O)NNS(=O)(=O)c2ccc(C)cc2)c(O)c2ccccc21 | – | inconclusive: 35.5 µM [fluorescent, single point]
COc1ccc(-n2ncc3c(NCCC4=CCCCC4)ncnc32)cc1 | inconclusive: 9.98% [at 46 µM] | –
O=C(Nc1cccc(OC(F)(F)F)c1)c1ccc(Br)o1 | inconclusive: 2.7% | –
Cc1ccc(/C=[N+](/C)[O-])cc1 | inconclusive: 16.9% [at 46 µM] | –
CC1=CC(C)(C)Nc2ccc(OC(=O)c3ccco3)cc21 | – | inconclusive: 35.5 µM [cytotoxic, single point]
CCOc1ccc(CC(=O)N2CCN=C2SCc2ccc([N+](=O)[O-])cc2)cc1 | – | inconclusive: 11.2 µM [falling, partial curve]
COc1ccc(C(=O)NC(=S)Nc2ccc([N+](=O)[O-])cc2C)cc1OC | inactive | –
